Some results were stated once for a whole list of compounds, not compound by compound.
System: Klebsiella pneumoniae ATCC 43816
Experiment: Murine neutropenic thigh model of infection
Assay type: in vivo, male CD-1 mice
Experimental: 4.1 Murine Neutropenic Thigh Model of Infection (Kiebsiella Pneumoniae ATCC 43816)
A comparator antibiotic (meropenem; Cat. No. 1392454, USP) was used during both studies.
During the first study ABX5006 and ABX5020 were tested at a dose of 64 mg/kg (group 5 for ABX5006, group 8 for ABX5020), 16 mg/kg (group 4 for ABX5006, group 7 for ABX5020) and of 4 mg/kg (group 3 for ABX5006, group 6 for ABX5020).
During a second study ABX5026 and ABX5039 were tested at a dose of 4 mg/kg (group 5 for ABX5026, group 8 for ABX5039), 1 mg/kg (group 4 for ABX5026, group 7 for ABX5039) and of 0.25 mg/kg (group 3 for ABX5026, group 6 for ABX5039).
Animals were dosed subcutaneously (10 mL/kg) twice with 8 h interval. […] A CFU count below limit of detection (LOD=1.0×10^2 CFU/mL) was substituted with the value 0 in order to perform statistical analysis.
Inoculum preparation for intramuscular infection. The strain was streaked out onto MH agar.

SMILES | CFU count reduction in comparison to the vehicle control group (dose 64 mg/kg SC BID) | CFU count reduction in comparison to the vehicle control group (dose 4 mg/kg SC BID)
N=C(N)NC1C(O)[C@@H](CO)OC(OC2C(F)[C@H](O[C@H]3OC(CN)[C@@H](O)CC3N)C(N)C[C@H]2NC(=O)[C@@H](O)CCN)[C@@H]1O (some centres unmarked) [ABX5006, Tobra-AHB-F-Gua] | > 7 log 10 | –
N=C(NCCN)NC1C(O)[C@@H](CO)OC(OC2C(F)[C@H](O[C@H]3OC(CN)[C@@H](O)CC3N)C(N)C[C@H]2NC(=O)[C@@H](O)CCN)[C@@H]1O (some centres unmarked) [ABX5020, Tobra-AHB-F-Gua-2-amino-ethyl] | > 7 log 10 | > 7 log 10
N=C(NC[C@@H]1CCCN1)NC1[C@@H](O)C(OC2[C@@H](F)[C@H](O[C@H]3OC(CN)[C@@H](O)CC3N)C(N)C[C@H]2NC(=O)[C@@H](O)CCN)O[C@H](CO)[C@H]1O (stereo partly drawn) [ABX5026, Tobra-AHB-F-Gua (S) pyrrolidine-2-yl-methyl] | – | > 7 log 10
N=C(NC[C@@H]1CCNC1)NC1[C@@H](O)C(OC2[C@@H](F)[C@H](O[C@H]3OC(CN)[C@@H](O)CC3N)C(N)C[C@H]2NC(=O)[C@@H](O)CCN)O[C@H](CO)[C@H]1O (stereo partly drawn) [ABX5039, Tobra-AHB-F-Gua (R) pyrrolidine-3-ylmethyl] | – | > 7 log 10

Reference: patent US20220127297A1, “Novel Antibacterial 3"-Derivatives Of 4,6-Disubstituted 2,5-Dideoxystreptamine Aminoglycoside Antibiotics” (AGILeBiotics B.V., priority 2018, published 2022)
